Results are given in words; binding and its absence hold for the method and conditions named. In cells and extracts the contact can be indirect. For some assays here: Binding calls can cover weak binding; strength is not graded here. For some assays here: Tags and fused reporters may be left off the sequences shown.
Legend:
phogrin–EGFP = molecular target: T1, phogrin–EGFP (UniProt Q63475); experiment: co-IP; MIN6 cells stably expressing phogrin–EGFP, at 90% (high) or 50% (low) density, extract precipitated with anti-GFP monoclonal antibody, blot for IR
T1 sequence: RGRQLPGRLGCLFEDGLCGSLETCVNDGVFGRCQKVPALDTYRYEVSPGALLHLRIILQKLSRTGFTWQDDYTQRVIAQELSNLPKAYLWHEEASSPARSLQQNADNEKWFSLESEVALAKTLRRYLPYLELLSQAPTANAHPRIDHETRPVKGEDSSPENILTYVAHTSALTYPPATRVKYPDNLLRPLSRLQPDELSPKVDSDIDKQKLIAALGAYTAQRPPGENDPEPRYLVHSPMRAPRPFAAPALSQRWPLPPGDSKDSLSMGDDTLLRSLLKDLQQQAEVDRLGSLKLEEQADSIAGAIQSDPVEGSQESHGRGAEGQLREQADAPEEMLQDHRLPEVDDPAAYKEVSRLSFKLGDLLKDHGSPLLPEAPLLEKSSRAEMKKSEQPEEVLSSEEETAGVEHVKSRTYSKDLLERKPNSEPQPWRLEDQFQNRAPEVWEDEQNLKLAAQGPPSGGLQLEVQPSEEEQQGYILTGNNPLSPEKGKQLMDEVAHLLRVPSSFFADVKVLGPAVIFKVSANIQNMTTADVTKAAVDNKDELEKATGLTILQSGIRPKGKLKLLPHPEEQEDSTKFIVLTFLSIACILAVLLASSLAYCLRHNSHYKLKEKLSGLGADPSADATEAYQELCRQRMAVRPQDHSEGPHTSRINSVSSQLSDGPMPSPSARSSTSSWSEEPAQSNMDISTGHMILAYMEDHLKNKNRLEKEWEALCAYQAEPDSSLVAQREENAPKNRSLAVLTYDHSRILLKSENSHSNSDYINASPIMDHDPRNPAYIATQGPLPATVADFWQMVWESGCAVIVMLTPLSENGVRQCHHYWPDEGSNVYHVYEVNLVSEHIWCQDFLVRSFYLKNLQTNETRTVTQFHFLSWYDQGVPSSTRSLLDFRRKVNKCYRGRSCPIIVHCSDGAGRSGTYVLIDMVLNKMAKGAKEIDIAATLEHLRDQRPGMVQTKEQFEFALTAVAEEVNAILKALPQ

[1] = molecular target: T2, phogrin (endogenous, mouse) (mouse (endogenous in mouse islets and MIN6)) (UniProt P80560); experiment: co-IP; MIN6 cells cultured at various densities (50–100%), 1.5 mg extract precipitated with anti-phogrin antibody, blot for IR
T2 sequence: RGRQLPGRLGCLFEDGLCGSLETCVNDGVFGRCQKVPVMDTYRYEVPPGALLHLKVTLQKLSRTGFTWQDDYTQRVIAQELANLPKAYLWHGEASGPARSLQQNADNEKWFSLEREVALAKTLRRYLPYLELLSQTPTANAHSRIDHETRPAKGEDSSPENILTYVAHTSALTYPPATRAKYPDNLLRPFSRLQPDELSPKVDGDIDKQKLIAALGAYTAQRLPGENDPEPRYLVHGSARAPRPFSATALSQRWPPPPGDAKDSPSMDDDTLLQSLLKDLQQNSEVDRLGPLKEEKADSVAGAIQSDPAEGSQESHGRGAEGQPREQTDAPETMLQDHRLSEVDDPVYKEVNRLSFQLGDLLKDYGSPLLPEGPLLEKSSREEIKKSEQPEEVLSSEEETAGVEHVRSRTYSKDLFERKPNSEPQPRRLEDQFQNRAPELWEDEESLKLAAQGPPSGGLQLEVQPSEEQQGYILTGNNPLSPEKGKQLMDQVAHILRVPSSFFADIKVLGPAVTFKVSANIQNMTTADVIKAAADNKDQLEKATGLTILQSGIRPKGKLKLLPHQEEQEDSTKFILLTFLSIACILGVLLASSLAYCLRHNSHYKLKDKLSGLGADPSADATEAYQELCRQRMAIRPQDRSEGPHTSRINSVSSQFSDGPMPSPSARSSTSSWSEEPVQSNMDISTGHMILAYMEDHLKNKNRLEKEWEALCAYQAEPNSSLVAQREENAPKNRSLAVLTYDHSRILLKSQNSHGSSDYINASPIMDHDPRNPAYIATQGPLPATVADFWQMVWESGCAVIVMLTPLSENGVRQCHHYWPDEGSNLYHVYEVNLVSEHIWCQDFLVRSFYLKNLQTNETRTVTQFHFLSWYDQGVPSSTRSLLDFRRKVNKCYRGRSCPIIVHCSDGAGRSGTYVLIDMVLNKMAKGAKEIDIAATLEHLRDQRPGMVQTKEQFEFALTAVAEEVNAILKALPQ

[2] = molecular target: T2, phogrin (endogenous, mouse) (mouse (endogenous in mouse islets and MIN6)); experiment: co-IP; islets of HFD-fed wild-type mice, lysis buffer A (1% Nonidet P-40, 150 mM NaCl), 0.5 mg extract precipitated with anti-phogrin rabbit antibody, blot for IRβ
phogrin–GST = molecular target: T3, phogrin–GST (UniProt Q63475); experiment: pull-down; MIN6 cells stably expressing phogrin–GST, at 90% (high) or 50% (low) density, extract pulled down with glutathione sepharose, blot for IR
T3 sequence: T1 sequence

[3] = molecular target: T2, phogrin (endogenous, mouse) (mouse (endogenous in mouse islets and MIN6)); experiment: co-IP; islets of wild-type mice on the normal diet (NFD), lysis buffer A, 0.5 mg extract precipitated with anti-phogrin rabbit antibody, blot for IRβ

insulin receptor (endogenous, mouse)
binding (phogrin–EGFP): binds
binding [1]: binds
binding [2]: binds
binding (phogrin–GST): binds
binding [3]: no binding (only islets of mice on the normal diet)

Reference: PMC10780347
